Data on five sequences can be found in publication PMC8755542.

Chains of the proteins cited; added tags and fusions are not shown. Lines headed by an entry give the natural chain unless they say otherwise; changes in a name come on top. A line that says so, or that is headed by a name, gives the form on record, which may keep a tag or linker.
UniProt Q06609, whole entry: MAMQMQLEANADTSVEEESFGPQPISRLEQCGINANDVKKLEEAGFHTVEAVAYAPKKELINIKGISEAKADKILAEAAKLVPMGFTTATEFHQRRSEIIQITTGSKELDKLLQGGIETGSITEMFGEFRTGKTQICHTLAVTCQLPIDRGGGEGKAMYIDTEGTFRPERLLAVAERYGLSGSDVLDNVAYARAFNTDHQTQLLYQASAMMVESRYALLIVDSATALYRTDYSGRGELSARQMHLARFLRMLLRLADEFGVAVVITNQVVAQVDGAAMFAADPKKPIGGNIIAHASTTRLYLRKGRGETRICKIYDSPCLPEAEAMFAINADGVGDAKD
RPA-mRFP1 (human), one chain, as listed by the source, chain 3 of 3: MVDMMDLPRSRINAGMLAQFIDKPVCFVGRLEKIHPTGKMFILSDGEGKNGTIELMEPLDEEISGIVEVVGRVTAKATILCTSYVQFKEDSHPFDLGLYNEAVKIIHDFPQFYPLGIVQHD
RPA-mRFP1 (human), one chain, as listed by the source, chain 1 of 3: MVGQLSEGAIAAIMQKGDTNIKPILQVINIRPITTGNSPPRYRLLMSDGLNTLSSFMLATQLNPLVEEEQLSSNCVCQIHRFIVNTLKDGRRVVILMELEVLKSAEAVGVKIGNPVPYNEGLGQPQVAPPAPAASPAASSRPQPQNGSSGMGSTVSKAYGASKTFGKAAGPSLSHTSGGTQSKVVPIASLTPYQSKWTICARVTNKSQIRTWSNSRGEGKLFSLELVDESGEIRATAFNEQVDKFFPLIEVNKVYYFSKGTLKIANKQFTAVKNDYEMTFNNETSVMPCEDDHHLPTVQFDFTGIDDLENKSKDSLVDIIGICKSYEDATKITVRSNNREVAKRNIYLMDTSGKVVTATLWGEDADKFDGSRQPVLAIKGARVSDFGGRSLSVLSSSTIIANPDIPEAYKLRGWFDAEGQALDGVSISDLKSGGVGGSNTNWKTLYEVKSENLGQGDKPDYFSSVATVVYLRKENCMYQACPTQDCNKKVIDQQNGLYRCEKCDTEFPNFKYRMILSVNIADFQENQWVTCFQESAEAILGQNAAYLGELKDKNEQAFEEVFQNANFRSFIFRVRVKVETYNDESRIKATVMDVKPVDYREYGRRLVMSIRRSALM
RPA-mRFP1 (human), one chain, as listed by the source, chain 2 of 3: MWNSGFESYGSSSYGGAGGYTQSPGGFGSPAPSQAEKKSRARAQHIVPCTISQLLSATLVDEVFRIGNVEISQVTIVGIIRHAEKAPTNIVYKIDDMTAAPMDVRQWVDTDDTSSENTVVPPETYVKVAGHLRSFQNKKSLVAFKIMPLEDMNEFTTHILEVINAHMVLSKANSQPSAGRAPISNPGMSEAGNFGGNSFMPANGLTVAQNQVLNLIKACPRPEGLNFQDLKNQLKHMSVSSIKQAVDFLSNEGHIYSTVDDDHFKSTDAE

Data set [1] concerns the target T1, HELQ (human) (UniProt Q8TDG4).
T1 sequence (looked up): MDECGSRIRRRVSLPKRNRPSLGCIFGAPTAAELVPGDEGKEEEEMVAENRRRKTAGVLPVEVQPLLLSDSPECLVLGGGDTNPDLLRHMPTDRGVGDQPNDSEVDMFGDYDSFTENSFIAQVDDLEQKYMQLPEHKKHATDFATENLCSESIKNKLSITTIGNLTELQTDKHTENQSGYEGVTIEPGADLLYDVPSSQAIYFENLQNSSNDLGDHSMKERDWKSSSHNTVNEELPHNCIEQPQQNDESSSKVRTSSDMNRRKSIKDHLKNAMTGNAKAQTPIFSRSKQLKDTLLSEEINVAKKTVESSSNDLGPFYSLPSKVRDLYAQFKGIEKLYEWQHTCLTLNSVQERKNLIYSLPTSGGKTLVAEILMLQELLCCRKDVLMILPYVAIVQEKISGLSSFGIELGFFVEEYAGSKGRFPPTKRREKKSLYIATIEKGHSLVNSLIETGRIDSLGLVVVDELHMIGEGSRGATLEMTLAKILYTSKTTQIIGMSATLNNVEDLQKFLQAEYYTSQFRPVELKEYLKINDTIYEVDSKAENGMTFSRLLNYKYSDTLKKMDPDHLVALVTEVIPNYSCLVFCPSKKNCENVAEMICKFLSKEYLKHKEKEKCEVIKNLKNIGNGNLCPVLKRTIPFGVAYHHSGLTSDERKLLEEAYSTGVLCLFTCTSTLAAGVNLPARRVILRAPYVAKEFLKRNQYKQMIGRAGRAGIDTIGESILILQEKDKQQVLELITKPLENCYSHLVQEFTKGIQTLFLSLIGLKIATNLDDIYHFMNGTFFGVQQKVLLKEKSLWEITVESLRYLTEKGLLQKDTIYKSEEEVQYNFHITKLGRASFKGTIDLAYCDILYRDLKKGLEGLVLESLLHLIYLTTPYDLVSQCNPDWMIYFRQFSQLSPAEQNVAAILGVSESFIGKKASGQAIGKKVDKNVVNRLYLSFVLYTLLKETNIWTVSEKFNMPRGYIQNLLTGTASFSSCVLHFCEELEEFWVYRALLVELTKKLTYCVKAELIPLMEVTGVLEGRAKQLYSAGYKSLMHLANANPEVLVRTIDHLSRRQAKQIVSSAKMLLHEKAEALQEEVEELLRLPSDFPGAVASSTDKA
Put plainly: EMSA. Particulars: 2 mM ATP, 2 mM Mg2+, EMSA: 25 mM Tris-HCl pH 8.0, 2 mM ATP, 2 mM MgCl2, 1 mM DTT, 50 mM NaCl, 0.1 mg/ml BSA, 25 nM DNA, 10 min 37 C (20 min for RAD51 +/- HELQ), recombinant protein, residues 1-1101.

The target in data set [2] is RAD51 (human) (UniProt Q06609). As to the kind of experiment: EMSA. Particulars: EMSA: 25 mM Tris-HCl pH 8.0, 2 mM ATP, 2 mM MgCl2, 1 mM DTT, 50 mM NaCl, 0.1 mg/ml BSA, 25 nM DNA, 10 min 37 C (20 min for RAD51 +/- HELQ), recombinant protein.
For data set [3], the system named is RPA-mRFP1 (human). As to the kind of experiment: EMSA (RPA stripping gel). Particulars: stripped by HELQ during annealing to oligo 2, RPA fusion presumed mRFP1; EMSA: 25 mM Tris-HCl pH 8.0, 2 mM ATP, 2 mM MgCl2, 1 mM DTT, 50 mM NaCl, 0.1 mg/ml BSA, 25 nM DNA, 10 min 37 C (20 min for RAD51 +/- HELQ); recombinant protein; protein details: mRFP1; label: 5' FITC; single-stranded DNA. Background: A gel shift assay detects complexes by their altered migration in electrophoresis.

The subject of data set [4] is HELQ + RPA-mRFP1. As to the kind of experiment: pull-down. Particulars: bait oligo bridging to Cy3-dT79, 82 nM RPA, fusion not stated; recombinant protein; label: 3' biotin; single-stranded DNA.
The test system of data set [5] is HELQ(K365M) + RPA-mRFP1. Put plainly: pull-down. Particulars: bait oligo bridging to Cy3-dT79, RPA fusion not stated; recombinant protein; label: 3' biotin; single-stranded DNA.
Setting [6] is: 2 mM ATP, 2 mM Mg2+, no BRC4, label: 5' FITC on strand 1.
Setting [7] is: with GST-BRC4 (P7), which prevents RAD51 DNA binding, label: 5' FITC on strand 1.

The exact form of at least one protein or probe is not confirmed. For some assays here: Weaker means in comparison with the reference protein, sequence or condition of that experiment. At least one verdict rests on a figure or table, not on a statement of the authors. For some assays here: Where a protein sequence is shown, tags need not be part of it.

For the sequence “AGCTACCATGCCTGCACGAATTAAGCAATTCGTAATCATGGTCATAGCT [ssDNA (oligo 1)]”, the binding result in data set [1] (label: 5' FITC, single-stranded DNA) is reported as “binds”; in data set [2] (not removed by added HELQ, label: 5' FITC, single-stranded DNA) it was “binds”; in data set [3] it was “binds”.

Consider “AGCTACCATGCCTGCACGAATTAAGCAATTCGTAATCATGGTCATAGCT / AATTCGTGCAGGCATGGTAGCT [3' overhang (oligo 1 + oligo 4)]”, for which the binding result is given as “binds” in data set [2] (setting [6]) and “binds more weakly” in data set [2] (setting [7]).

In the case of “TTTTTTTTTTTTTTTTTTTTTTTTTTTTTTTTTTTTTTTTTTT [B-dT43]”, the binding result in data set [4] and in data set [5] was “binds” in each case.

In the case of “AGCTACCATGCCTGCACGAATTAAGCAATTCGTAATCATGGTCATAGCT (double strand) [dsDNA (oligo 1 + oligo 2)]”, the binding result was “binds” in data set [1] (label: 5' FITC on strand 1) and “binds” in data set [2] (not removed by added HELQ, label: 5' FITC on strand 1).

In the case of “AGCTACCATGCCTGCACGAATTAAGCAATTCGTAATCATGGTCATAGCT / AGCTATGACCATGATTACGAATTGCTTGGAATCCTGACGAACTGTAG [Y structure (oligo 1 + oligo 6)]”, the binding result is “binds” in data set [2] (setting [6]) and “binds more weakly” in data set [2] (setting [7]).
